Earlier results on three molecules are cited in patent US11260029B2, “Fish feed compositions containing a neonicotinoid for preventing and treating parasite infections” (priority 2014, dated 2022).

For this series the following is noted: in-feed 1, 5 or 10 mg/kg/day for 7 days; medium and higher concentrations; WO 2014/064184; cited from earlier work.

As for `O=[N+]([O-])/N=C1\NCCN1Cc1ccc(Cl)nc1` [Imidacloprid, (2E)-1-((6-chloropyridin-3-yl)methyl)-N-nitroimidazolidin-2-imine], the food uptake entry was “reduced to an unacceptable level”.
As for `C/C(=N\C#N)N(C)Cc1ccc(Cl)nc1` [acetamiprid], the food uptake entry is given as “reduced to an unacceptable level”.
As for `CN/C(=N\[N+](=O)[O-])NCc1cnc(Cl)s1` [clothianidin], the food uptake entry is “not affecting the feed uptake”.
